The campaign covered roughly 340,000 compounds. About 6,200 (1.8%) were called active. This list was built around the results that the source calls inconclusive (neither active nor inactive); the mix of calls is not that of the screen. Calls come from the whole dose curve; as a rule, active = well fitted activation curve with a large enough effect; inconclusive = small, poorly fitted or top-dose-only effect; inactive = no such curve, though single readings can be large or run the other way. A potency beside an inconclusive call is a rough fit, not a confirmed value.
Assay: A quantitative high throughput screen for small molecules that induce DNA re-replication in SW480 colon adenocarcinoma cells. For re-replication activation: % of control where 0% means no effect. Note: nearly all actives have a fitted effect of over 55% in size.
Details: Hoechst DNA content imaging, 48 h; re-replication activation: at 46.1 µM (top of the series) unless noted
How it was run: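 Image-based DNA-content assay: after two days of treatment, nuclei were labelled with the DNA dye Hoechst and imaged, and hits were compounds raising the count of nuclei showing high fluorescence intensity.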
Potency is the fitted concentration of half-maximal effect.

SMILES	Potency	re-replication activation
CC1CCCN(S(=O)(=O)c2ccc(C(=O)Nc3nnc(C4CC4)o3)cc2)C1 (centres undefined)	inconclusive: 23.1 µM [activator, single point]	–
COC(=O)C(CC(=O)c1ccc(C)cc1)n1nc(C)cc1C (centres undefined)	–	inactive: -0.614%
COc1cc(/C=N/NC(=O)Nc2cccc3nsnc23)cc(OC)c1OC	inconclusive: 6.51 µM [activator, full curve]	–
O=C(CCN1C(=O)c2ccccc2S1(=O)=O)N1CCN(c2ccccc2F)CC1	inconclusive: 29.1 µM [activator, single point]	–
Cc1c(C(=O)NC(=S)Nc2ccc(NC(=O)c3cccs3)cc2)oc2ccccc12	–	inactive: -0.493%
Cc1cc(NC2CCCCC2)nc(NCc2ccccc2)n1	active: 14.6 µM	–
CCOC(=O)/C=c1\s/c(=C\c2ccc(C#N)cc2)c(=O)n1CC(=O)NCc1ccco1	–	inactive: 6.39%
CCOC(=O)C1(C(=O)OCC)NC(=O)CC1CC(C)C (centres undefined)	–	inactive: -8.1%
CC1CCc2nc(NC(=O)CCSc3ccccc3)sc2C1 (centres undefined)	–	inactive: -3.53%
CC(=O)Nc1ccc(S(=O)(=O)N2CCC(C(=O)NCCc3ccc(Cl)cc3)CC2)cc1	inconclusive: 6.31 µM [activator, single point]	–
COc1ccc(-c2nnc(SC(=O)N3c4ccccc4Sc4ccccc43)o2)cc1	inconclusive: 20.6 µM [activator, single point]	–
O=C(CSc1nnc(Cc2ccccc2)o1)Nc1ccc(N2CCOCC2)cc1	–	inactive: -7.41%
Cc1sc2ncn(CC(=O)NCC3COc4ccccc4O3)c(=O)c2c1S(=O)(=O)N1CCCCC1 (centres undefined)	–	inactive: -0.122%
c1ccc(NC2=Nc3ccccc3CS2)cc1	inconclusive: 25.9 µM [activator, partial curve, poor fit]	–
O=C(CSc1ccc2nnc(-c3cccnc3)n2n1)Nc1ccc(F)cc1F	inconclusive: 18.4 µM [activator, single point]	–
Cc1ccc(/C=N/N=C/c2ccc(C)cc2)cc1	–	inactive: -1.42%
O=C(N=C1SC2CS(=O)(=O)CC2N1Cc1ccccc1Cl)C1CC1 (centres undefined)	inconclusive: 23.1 µM [activator, single point]	–
CN=C1C=CC(=C(c2ccc(N(C)C)cc2)c2ccc(N(C)C)cc2)C=C1	inconclusive: 16.8 µM [activator, single point]	–
Cc1ccc(O)c(-c2cc(C(=O)Nc3c(C)n(C)n(-c4ccccc4)c3=O)[nH]n2)c1	active: 0.058 µM	–
COc1ccc(N2C(=O)/C(=C/c3cccs3)NC2=S)cc1	–	inactive: 2.34%
COCCCNC(=O)c1c(N)n(/N=C/c2cccnc2)c2nc3ccccc3nc12	inconclusive: 3.26 µM [activator, full curve, poor fit]	–
COC(=O)c1ccc(OC(=O)c2ccncc2)cc1O	–	inconclusive: -31.3% [activator]
Cc1cc(=O)[nH]c(SCC(=O)Nc2nc3ccccc3s2)n1	inconclusive: 29.1 µM [activator, single point]	–
Cn1cc([N+](=O)[O-])c(C(=O)Nc2ccc3c(c2)OCCO3)n1	inconclusive: 23.1 µM [activator, single point]	–
C[C@H](CO)N1C[C@H](C)[C@@H](CN(C)S(=O)(=O)c2ccccc2)Oc2c(NC(=O)C3CCCCC3)cccc2C1=O	inconclusive: 2.31 µM [activator, partial curve, poor fit]	–

Given comma-delimited: part of the list above.
SMILES,Potency,re-replication activation
CCOC(=O)/C=c1\s/c(=C\c2ccc(C#N)cc2)c(=O)n1CC(=O)NCc1ccco1,–,inactive: 6.39%
CCOC(=O)C1(C(=O)OCC)NC(=O)CC1CC(C)C (centres undefined),–,inactive: -8.1%

The list continues:

SMILES	Potency	re-replication activation
CC1CCCC(NC(=O)C2N(CCCN3CCCC3)C(=O)C3C(C(=O)Nc4cccc(Cl)c4)C4C=CC32O4)C1C (centres undefined)	inconclusive: 29.1 µM [activator, single point]	–
N#Cc1ccc(OCC(=O)OCC(=O)Nc2cc(C(F)(F)F)ccc2N2CCOCC2)cc1	–	inactive: -4.17%
N#Cc1cnn(CC2CCCCC2)c1N	–	inactive: -4.53%
OC(CNC1CCCCC1)COCCOc1ccc(Br)cc1 (centres undefined)	inconclusive: 29.1 µM [activator, single point]	–
COc1ccc(N(CC(=O)Nc2ccc(OC)cc2OC)S(=O)(=O)c2ccccc2)cc1	inconclusive: 23.1 µM [activator, single point]	–
CCCOC(=O)/C(C(N)=NCc1ccccc1)=C(\O)OCCC	inconclusive: 29.1 µM [activator, single point]	–
Cc1ccc(-c2nnc(Nc3ccc4c(c3)nc(C)n4C)c3ccccc23)cc1	inconclusive: 18.4 µM [activator, single point]	–
CCCN(CC(=O)Nc1ccccc1C)C(=O)/C=C/c1ccc(S(=O)(=O)N2CCCCCC2)cc1	–	inactive: -1.29%
COc1ccc(NC(=O)NC2CCCc3ccccc32)c(OC)c1 (centres undefined)	–	inactive: 5.2%
NC(=O)c1ccc2nc(NC(=O)c3ccc(N)cc3)sc2c1	–	inactive: 21.9%
Cc1c(C#N)c(NC(=O)CCl)n(Cc2ccc(F)cc2)c1C	inconclusive: 18.4 µM [activator, single point]	–
O=C(NCCCn1ccnc1)C(=O)NCC(c1cccnc1)N1CCN(c2ccccc2)CC1 (centres undefined)	–	inactive: -5.99%
Cc1ccc(-c2nnc(SCC(=O)N3CCCC3)o2)cc1C	inconclusive: 23.1 µM [activator, partial curve, poor fit]	–
COc1ccc(CCNC(=O)CSc2ccc(-c3ccncc3)nn2)cc1	inconclusive: 14.6 µM [activator, single point]	–
Cc1ccc(S(=O)(=O)n2cc(-c3ccccc3)c3ccccc32)cc1	active: 3.66 µM	–
Cc1cc(C(=O)CN2C(=O)C(=O)N(Cc3ccco3)C2=O)c(C)n1CCc1ccc(F)cc1	inconclusive: 20.6 µM [activator, single point]	–
CC(=O)c1cnn(-c2nc3c(C)cccc3s2)c1C	–	inactive: -0.355%
NC(=O)CC(NC(=O)Cc1ccc(Br)cc1)c1ccc(NCc2ccc(F)cc2)c([N+](=O)[O-])c1 (centres undefined)	–	inactive: -19% [at 9.22 µM]
CCC(C)c1ccccc1NC(=O)C(C)OC(=O)c1ccco1 (centres undefined)	–	inactive: -5.88%
CNc1nc2[nH]c(=O)c3c(c2s1)OC(N)=C(C#N)C3c1cccc(F)c1 (centres undefined)	–	inactive: -5.93%
CC(=O)CCc1ccc(OCC(=O)Nc2cccc(S(=O)(=O)N(C)c3ccccc3)c2)cc1	–	inactive: 0.471%
Cc1nn2c(N3CCN(CCO)CC3)c3c(nc2c1-c1ccccc1)CCCC3	inconclusive: 29.1 µM [activator, single point]	–
Cc1onc(-c2ccccc2Cl)c1C(=O)N1CCCc2ccccc21	–	inactive: -4.9%
CCn1ccnc1CN(C)C(=O)CCc1nnc(CCC2CCCCC2)o1	inconclusive: 11.6 µM [activator, partial curve, poor fit]	–
N#CC1=C(N)C(C#N)(C#N)[C@H](c2ccoc2)[C@H]2CN(Cc3ccccc3)CC=C12	active: 16.4 µM	–

Of the compounds above, these contain two or more sulfur atoms:
SMILES	Potency	re-replication activation
Cc1c(C(=O)NC(=S)Nc2ccc(NC(=O)c3cccs3)cc2)oc2ccccc12	–	inactive: -0.493%
CC1CCc2nc(NC(=O)CCSc3ccccc3)sc2C1 (centres undefined)	–	inactive: -3.53%
COc1ccc(-c2nnc(SC(=O)N3c4ccccc4Sc4ccccc43)o2)cc1	inconclusive: 20.6 µM [activator, single point]	–
Cc1sc2ncn(CC(=O)NCC3COc4ccccc4O3)c(=O)c2c1S(=O)(=O)N1CCCCC1 (centres undefined)	–	inactive: -0.122%
O=C(N=C1SC2CS(=O)(=O)CC2N1Cc1ccccc1Cl)C1CC1 (centres undefined)	inconclusive: 23.1 µM [activator, single point]	–
COc1ccc(N2C(=O)/C(=C/c3cccs3)NC2=S)cc1	–	inactive: 2.34%
Cc1cc(=O)[nH]c(SCC(=O)Nc2nc3ccccc3s2)n1	inconclusive: 29.1 µM [activator, single point]	–

More structures follow.

SMILES	Potency	re-replication activation
O=C(Cn1cncn1)N/N=C/c1ccccc1O	inconclusive: 29.1 µM [activator, single point]	–
N/C(=N\OC(=O)c1ccc(Cl)c([N+](=O)[O-])c1)c1ccccc1	–	inactive: 1.15%
O=C(NC1CCCC1)c1cc(=O)[nH]c2ccccc12	–	inactive: -11.9%
Cc1ccc(NC(=S)NCC23C=CC(O2)C2C(=O)N(c4ccc(C)cc4)C(=O)C23)cc1 (centres undefined)	inconclusive: 32.6 µM [activator, partial curve, poor fit]	–
Cc1ccc(C2=NN(CC(=O)O)C(=O)CC2)cc1	–	inactive: -10.5%
OCC[C@@H]1C[C@@H](O)[C@H](O)[C@]2(Cc3ccccc3CO2)O1	–	inactive: -13.9%
CCCC(=O)NC(c1ccc(N(C)C)cc1)c1ccc2cccnc2c1O (centres undefined)	inconclusive: 8.2 µM [activator, partial curve, poor fit]	–
O=C1N(Cc2ccccc2)CC2(Br)COCOC12O (centres undefined)	inconclusive: 25.9 µM [activator, single point]	–
N/C(=N\OCc1ccccc1)c1nonc1N	inconclusive: 0.1 µM [activator, partial curve, poor fit]	–
Cc1ccc(C(=O)NCCCNC(=O)COc2ccccc2Cl)cn1	–	inactive: -5.6%
Cc1cc([N+](=O)[O-])nn1CC(=O)Nc1c(C)n(C)n(-c2ccccc2)c1=O	inconclusive: 6.51 µM [activator, partial curve, poor fit]	–
O=C1C2C3c4ccccc4C(c4ccccc43)C2C(=O)N1/N=C/c1cccc(O)c1 (centres undefined)	inconclusive: 6.51 µM [activator, partial curve, poor fit]	–
COc1ccc(CCN(Cc2cc3cccc(C)c3[nH]c2=O)C(=O)NC2CCCCC2)cc1OC	–	inactive: 7.07%
CC(C)(Cc1c[nH]c2ccccc12)NCC(O)COc1ccccc1C#N (centres undefined)	inconclusive: 11.9 µM [activator, single point]	–
C/C(=N\NC(=O)Cn1ccc(C(F)(F)F)n1)c1ccc(N2CCOCC2)cc1	–	inactive: 4.68%
COc1ccc(CCNc2ccc(S(N)(=O)=O)cn2)cc1	inconclusive: 1.64 µM [activator, full curve, poor fit]	–
Cn1c(=O)c(/C=C/c2ccccc2)nc2ccccc21	inconclusive: 18.4 µM [activator, single point]	–
Cc1cc(Br)cc(Cl)c1OCC(=O)NC(=O)NCc1ccccc1	–	inactive: 6.74%
CCn1c(=O)cc(SCC(=O)Nc2ccc(C)cn2)c2ccccc21	inconclusive: 23.1 µM [activator, single point]	–
Cc1ccc(C(=O)NC(=C(Cl)Cl)S(=O)(=O)c2ccc(Cl)cc2)cc1	–	inconclusive: 135% [activator] [at 1.84 µM]
CC(=O)c1ccccc1NC(=O)c1ccc(N2CCCC2=O)cc1	inconclusive: 4.61 µM [activator, partial curve, poor fit]	–
CCC1CN(C(=O)NCc2ccc(F)cc2)c2ccccc2O1 (centres undefined)	–	inactive: -0.329%
Cc1ccc(N2CCN(CC(O)COc3ccccc3)CC2)cc1 (centres undefined)	–	inactive: -2.24%
COc1ccc(C(=O)CN2C3=NCCCN3c3ccccc32)cc1OC	active: 0.259 µM	–

— PubChem BioAssay AID624297 (National Center for Advancing Translational Sciences (NCATS), 2012)
